Some of the results follow.
Columns and labels:
Assay in all cases: log2 fold change, soluble protein after heating vs DMSO (PISA); higher = thermal stabilisation; K562 cells, 10 uM, 30 min; active = over 0.2 and 3.5 SD of the protein, either way, in both replicates (recomputed)
saracatinib = compound: CN1CCN(CCOc2cc(OC3CCOCC3)c3c(Nc4c(Cl)ccc5c4OCO5)ncnc3c2)CC1 [saracatinib]
Procedure, shortened: (§1)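 K562 cells (2×10^6 cells/mL) were treated with 10 μM compound for 30 min, and aliquots were heated for 3 min over 48°C-58°C. Pooled aliquots were extracted in PBS with 0.5% NP-40 at 4°C, and the supernatant after 21,000xg for 90 min was measured by TMTpro 16plex LC-MS/MS with channel sums equalised. Reported thermal stability, relative to control samples and from duplicates, is a log2 fold change.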

Amino acid sequences for entries named in this document (tags omitted). A change or cut given only in a name is not applied to a line headed by its entry.
UniProt Q99643: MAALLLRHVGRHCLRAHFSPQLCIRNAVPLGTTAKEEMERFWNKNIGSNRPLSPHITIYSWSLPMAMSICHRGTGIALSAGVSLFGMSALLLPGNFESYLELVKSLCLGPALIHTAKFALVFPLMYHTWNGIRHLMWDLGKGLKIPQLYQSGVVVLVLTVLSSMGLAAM
UniProt Q9BWG6: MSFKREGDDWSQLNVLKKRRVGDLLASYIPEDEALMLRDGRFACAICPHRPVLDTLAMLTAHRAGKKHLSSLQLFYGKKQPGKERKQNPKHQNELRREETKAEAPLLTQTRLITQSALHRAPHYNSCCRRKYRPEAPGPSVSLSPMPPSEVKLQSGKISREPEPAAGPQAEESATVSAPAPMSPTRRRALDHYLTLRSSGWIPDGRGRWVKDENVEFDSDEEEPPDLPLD
UniProt P57060: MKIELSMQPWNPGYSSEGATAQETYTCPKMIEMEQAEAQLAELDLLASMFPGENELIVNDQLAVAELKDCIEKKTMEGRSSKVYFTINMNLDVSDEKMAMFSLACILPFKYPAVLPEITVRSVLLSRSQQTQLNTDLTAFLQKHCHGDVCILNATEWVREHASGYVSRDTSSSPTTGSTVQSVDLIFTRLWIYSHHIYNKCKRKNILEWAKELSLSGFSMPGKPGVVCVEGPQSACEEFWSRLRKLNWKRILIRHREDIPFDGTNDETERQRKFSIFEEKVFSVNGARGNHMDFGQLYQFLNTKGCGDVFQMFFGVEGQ
UniProt Q96EU6: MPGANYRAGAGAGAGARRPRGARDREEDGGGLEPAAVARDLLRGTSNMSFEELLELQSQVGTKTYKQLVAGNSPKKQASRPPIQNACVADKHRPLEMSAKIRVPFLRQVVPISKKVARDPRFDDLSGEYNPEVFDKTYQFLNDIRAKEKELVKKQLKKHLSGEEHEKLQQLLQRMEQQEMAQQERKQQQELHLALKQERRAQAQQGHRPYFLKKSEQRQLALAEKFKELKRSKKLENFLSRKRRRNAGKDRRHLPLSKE
UniProt Q96T23: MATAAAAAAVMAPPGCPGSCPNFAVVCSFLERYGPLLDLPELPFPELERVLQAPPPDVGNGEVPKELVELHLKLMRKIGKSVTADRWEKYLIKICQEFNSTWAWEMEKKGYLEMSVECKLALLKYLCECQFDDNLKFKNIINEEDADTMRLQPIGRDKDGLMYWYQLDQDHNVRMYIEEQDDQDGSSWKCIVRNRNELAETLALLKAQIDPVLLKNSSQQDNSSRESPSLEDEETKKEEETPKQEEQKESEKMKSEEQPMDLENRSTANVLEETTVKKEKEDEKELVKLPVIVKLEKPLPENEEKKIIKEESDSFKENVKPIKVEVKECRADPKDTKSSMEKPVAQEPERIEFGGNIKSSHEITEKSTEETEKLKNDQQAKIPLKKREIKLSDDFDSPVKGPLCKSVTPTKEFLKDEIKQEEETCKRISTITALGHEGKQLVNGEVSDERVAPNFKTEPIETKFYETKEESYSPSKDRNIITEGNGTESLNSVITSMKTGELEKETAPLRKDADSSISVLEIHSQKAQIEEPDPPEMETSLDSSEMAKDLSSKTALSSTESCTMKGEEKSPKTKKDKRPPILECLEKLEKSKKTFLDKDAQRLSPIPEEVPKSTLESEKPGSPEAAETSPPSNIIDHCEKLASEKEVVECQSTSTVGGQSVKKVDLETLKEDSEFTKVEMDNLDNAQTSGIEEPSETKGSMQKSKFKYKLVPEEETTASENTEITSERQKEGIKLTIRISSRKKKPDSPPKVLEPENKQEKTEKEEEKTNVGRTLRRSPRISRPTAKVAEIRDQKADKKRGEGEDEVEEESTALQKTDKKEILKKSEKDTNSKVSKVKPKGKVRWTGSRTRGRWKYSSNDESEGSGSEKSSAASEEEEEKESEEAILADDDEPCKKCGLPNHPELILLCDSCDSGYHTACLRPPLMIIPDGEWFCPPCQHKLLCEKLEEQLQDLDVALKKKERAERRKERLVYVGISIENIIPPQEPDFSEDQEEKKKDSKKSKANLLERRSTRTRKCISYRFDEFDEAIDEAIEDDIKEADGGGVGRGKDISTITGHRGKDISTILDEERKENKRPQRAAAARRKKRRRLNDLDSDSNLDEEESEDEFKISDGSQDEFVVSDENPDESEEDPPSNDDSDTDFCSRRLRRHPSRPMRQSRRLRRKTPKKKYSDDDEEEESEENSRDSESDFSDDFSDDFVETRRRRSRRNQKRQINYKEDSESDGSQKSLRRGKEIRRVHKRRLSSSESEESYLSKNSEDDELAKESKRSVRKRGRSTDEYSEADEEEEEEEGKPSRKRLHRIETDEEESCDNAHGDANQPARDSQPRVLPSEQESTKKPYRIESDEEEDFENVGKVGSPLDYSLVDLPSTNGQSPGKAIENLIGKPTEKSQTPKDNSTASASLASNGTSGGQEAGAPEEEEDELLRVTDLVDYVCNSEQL
UniProt O00767: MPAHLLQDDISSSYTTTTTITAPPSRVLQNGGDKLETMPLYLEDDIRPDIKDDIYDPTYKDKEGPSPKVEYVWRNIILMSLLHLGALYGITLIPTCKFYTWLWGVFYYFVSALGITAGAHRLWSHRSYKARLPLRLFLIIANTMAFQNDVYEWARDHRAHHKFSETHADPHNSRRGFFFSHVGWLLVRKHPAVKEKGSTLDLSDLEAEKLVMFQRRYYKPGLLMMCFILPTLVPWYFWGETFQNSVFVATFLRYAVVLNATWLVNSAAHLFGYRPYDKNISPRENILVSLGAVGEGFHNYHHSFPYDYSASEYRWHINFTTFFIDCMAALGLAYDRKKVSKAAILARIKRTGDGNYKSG
UniProt P60903, whole entry, looked up: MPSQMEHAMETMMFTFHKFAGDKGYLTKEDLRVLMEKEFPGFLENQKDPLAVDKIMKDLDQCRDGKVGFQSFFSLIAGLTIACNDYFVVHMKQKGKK
UniProt A6ZKI3: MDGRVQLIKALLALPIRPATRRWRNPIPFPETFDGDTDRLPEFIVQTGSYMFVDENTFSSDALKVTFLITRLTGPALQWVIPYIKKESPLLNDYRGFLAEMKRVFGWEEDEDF
UniProt Q9H0E3: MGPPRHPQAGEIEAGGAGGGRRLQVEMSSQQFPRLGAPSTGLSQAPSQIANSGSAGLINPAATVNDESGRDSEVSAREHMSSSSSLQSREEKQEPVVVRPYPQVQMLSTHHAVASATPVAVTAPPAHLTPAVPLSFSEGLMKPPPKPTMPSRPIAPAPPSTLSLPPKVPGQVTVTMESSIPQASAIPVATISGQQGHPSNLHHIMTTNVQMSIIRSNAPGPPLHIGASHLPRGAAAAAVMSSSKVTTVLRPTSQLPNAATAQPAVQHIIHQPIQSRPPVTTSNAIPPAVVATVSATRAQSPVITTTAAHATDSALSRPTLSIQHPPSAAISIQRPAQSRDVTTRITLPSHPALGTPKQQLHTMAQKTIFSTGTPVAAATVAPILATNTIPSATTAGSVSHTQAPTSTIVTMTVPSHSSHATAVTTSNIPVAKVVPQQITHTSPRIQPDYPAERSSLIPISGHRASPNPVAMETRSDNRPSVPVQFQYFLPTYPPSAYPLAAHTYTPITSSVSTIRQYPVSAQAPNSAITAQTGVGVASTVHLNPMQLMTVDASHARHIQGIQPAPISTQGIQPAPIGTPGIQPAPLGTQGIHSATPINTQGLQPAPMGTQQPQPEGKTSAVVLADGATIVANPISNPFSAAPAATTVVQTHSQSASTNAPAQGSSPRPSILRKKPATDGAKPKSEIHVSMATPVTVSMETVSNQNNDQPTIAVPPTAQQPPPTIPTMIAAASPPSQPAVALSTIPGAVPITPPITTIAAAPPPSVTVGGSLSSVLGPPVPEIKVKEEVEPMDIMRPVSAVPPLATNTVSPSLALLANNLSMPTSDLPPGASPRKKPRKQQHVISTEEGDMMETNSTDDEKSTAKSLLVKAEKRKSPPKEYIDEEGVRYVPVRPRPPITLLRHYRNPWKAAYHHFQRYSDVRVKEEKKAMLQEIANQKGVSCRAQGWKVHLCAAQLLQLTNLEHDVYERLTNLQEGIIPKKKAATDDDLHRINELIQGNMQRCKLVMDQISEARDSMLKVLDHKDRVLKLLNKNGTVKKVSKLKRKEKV
UniProt Q86WG5: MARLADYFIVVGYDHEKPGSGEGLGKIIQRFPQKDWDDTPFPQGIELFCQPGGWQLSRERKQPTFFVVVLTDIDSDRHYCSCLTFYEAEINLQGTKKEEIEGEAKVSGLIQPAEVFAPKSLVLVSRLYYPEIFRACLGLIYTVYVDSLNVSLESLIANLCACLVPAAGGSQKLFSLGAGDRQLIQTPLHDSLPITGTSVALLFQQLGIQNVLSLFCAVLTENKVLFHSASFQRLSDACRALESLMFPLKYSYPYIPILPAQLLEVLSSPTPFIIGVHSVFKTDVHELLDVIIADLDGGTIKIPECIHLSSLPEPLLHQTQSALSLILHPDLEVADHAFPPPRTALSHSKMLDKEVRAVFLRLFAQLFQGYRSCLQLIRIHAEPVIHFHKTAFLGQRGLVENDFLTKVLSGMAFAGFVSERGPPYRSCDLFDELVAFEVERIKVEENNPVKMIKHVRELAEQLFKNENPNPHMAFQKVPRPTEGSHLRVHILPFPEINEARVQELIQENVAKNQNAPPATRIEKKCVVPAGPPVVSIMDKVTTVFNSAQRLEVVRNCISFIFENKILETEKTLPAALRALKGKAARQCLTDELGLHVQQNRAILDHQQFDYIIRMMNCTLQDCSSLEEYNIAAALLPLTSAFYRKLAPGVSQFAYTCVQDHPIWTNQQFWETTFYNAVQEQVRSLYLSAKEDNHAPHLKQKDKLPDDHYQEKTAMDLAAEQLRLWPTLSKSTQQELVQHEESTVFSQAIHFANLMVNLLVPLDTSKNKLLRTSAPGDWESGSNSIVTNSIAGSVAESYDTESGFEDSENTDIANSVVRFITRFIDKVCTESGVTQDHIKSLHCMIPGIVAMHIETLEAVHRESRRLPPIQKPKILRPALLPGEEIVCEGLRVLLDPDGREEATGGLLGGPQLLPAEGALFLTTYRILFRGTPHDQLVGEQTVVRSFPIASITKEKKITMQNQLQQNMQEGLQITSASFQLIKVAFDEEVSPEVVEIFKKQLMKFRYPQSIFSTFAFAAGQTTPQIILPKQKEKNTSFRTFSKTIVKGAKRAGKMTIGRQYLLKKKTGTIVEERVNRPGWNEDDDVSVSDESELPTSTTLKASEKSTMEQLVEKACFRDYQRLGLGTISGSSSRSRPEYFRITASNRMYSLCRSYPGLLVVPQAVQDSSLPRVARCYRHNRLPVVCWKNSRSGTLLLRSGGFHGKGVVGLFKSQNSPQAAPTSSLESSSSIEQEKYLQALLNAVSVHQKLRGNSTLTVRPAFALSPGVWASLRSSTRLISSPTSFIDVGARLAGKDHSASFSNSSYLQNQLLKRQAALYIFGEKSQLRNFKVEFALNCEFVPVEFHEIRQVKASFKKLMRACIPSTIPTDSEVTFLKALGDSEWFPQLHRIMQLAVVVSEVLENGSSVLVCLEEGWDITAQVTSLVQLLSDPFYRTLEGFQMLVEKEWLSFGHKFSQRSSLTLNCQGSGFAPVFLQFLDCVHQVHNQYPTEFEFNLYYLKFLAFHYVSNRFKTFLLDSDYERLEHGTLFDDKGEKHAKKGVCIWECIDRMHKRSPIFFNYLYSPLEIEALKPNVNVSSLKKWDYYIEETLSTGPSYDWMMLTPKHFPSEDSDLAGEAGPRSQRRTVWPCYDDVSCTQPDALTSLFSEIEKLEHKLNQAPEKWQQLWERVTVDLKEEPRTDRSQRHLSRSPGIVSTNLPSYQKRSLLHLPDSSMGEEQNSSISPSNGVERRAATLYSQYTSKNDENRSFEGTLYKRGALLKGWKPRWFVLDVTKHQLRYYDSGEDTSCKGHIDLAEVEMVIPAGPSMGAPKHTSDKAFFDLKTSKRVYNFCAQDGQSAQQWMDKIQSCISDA
UniProt Q6UWP8: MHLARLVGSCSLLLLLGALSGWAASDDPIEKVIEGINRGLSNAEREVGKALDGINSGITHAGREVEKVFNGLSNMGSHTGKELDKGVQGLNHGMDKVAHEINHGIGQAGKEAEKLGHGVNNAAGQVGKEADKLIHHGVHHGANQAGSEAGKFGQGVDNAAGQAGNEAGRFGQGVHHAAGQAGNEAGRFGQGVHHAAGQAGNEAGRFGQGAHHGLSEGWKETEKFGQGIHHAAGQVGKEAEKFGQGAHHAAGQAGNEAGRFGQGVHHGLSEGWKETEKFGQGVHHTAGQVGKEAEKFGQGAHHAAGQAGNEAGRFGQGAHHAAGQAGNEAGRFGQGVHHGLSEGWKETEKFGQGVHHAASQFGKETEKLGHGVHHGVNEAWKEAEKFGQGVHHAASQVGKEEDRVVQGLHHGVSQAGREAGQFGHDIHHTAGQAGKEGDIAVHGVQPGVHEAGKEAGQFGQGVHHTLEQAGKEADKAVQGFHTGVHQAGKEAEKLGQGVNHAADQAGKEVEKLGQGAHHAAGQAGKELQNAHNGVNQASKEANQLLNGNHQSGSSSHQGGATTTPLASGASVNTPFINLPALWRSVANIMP

sotrastaurin = compound: CN1CCN(c2nc(C3=C(c4c[nH]c5ccccc45)C(=O)NC3=O)c3ccccc3n2)CC1 [sotrastaurin]
Procedure, shortened: as §1

Tubastatin A = compound: CN1CCc2c(c3ccccc3n2Cc2ccc(C(=O)NO)cc2)C1 [Tubastatin A]
Procedure, shortened: as §1

[1] = compound: CNC(=O)C1=CC=CC=C1NC2=NC(=NC=C2Cl)NC3=C(C=C(C=C3)N4CCOCC4)OC
Procedure, shortened: as §1

defactinib = compound: CNC(=O)c1ccc(Nc2ncc(C(F)(F)F)c(NCc3nccnc3N(C)S(C)(=O)=O)n2)cc1 [defactinib]
Procedure, shortened: as §1

rucaparib = compound: CNCc1ccc(-c2[nH]c3cc(F)cc4c3c2CCNC4=O)cc1 [rucaparib]
Procedure, shortened: as §1

[2] = compound: CNc1nc(-c2ccc3c(N)n[nH]c3c2)cc(N2C[C@@H](C(=O)NC3CCCCC3)CC[C@H]2C)n1
Procedure, shortened: as §1

encorafenib = compound: COC(=O)N[C@@H](C)CNc1nccc(-c2cn(C(C)C)nc2-c2cc(Cl)cc(NS(C)(=O)=O)c2F)n1 [encorafenib]
Procedure, shortened: as §1

[3] = compound: COC(=O)[C@H](CCSC)NC(=O)C1=C(C=C(C=C1)NC[C@H](CS)N)C2=CC=CC=C2
Procedure, shortened: as §1

[4] = compound: COC1=CC=C(C=C1)CN2C=CC3=C2C=C(C=C3)C(=O)NO
Procedure, shortened: as §1

filanesib = compound: CON(C)C(=O)N1N=C(c2cc(F)ccc2F)S[C@@]1(CCCN)c1ccccc1 [filanesib]
Procedure, shortened: as §1

zotarolimus = compound: CO[C@H]1C[C@@H]2CC[C@@H](C)[C@@](O)(O2)C(=O)C(=O)N2CCCC[C@H]2C(=O)O[C@H]([C@H](C)C[C@@H]2CC[C@H](n3cnnn3)[C@H](OC)C2)CC(=O)[C@H](C)/C=C(\C)[C@@H](O)[C@@H](OC)C(=O)[C@H](C)C[C@H](C)/C=C/C=C/C=C/1C [zotarolimus]
Procedure, shortened: as §1

idasanutlin = compound: COc1cc(C(=O)O)ccc1NC(=O)[C@@H]1N[C@@H](CC(C)(C)C)[C@](C#N)(c2ccc(Cl)cc2F)[C@H]1c1cccc(Cl)c1F [idasanutlin]
Procedure, shortened: as §1

alisertib = compound: COc1cc(Nc2ncc3c(n2)-c2ccc(Cl)cc2C(c2c(F)cccc2OC)=NC3)ccc1C(=O)O [alisertib]
Procedure, shortened: as §1

[5] = compound: COc1cc2nc(-c3cc(F)ccc3O)nc(N[C@@H]3CNC[C@H]3C(C)(C)O)c2cc1OC
Procedure, shortened: as §1

gefitinib = compound: COc1cc2ncnc(Nc3ccc(F)c(Cl)c3)c2cc1OCCCN1CCOCC1 [gefitinib]
Procedure, shortened: as §1

[6] = compound: COc1cccc2cc(-c3nc([C@H]4CC[C@H](C(=O)O)CC4)n4ncnc(N)c34)[nH]c12
Procedure, shortened: as §1

lapatinib = compound: CS(=O)(=O)CCNCc1ccc(-c2ccc3ncnc(Nc4ccc(OCc5cccc(F)c5)c(Cl)c4)c3c2)o1 [lapatinib]
Procedure, shortened: as §1

pictilisib = compound: CS(=O)(=O)N1CCN(Cc2cc3nc(-c4cccc5[nH]ncc45)nc(N4CCOCC4)c3s2)CC1 [pictilisib]
Procedure, shortened: as §1

alvocidib = compound: CN1CC[C@H](c2c(O)cc(O)c3c(=O)cc(-c4ccccc4Cl)oc23)[C@H](O)C1 [alvocidib]
Procedure, shortened: as §1

Row | Target | log2 fold change (saracatinib) | log2 fold change (sotrastaurin) | log2 fold change (Tubastatin A) | log2 fold change [1] | log2 fold change (defactinib) | log2 fold change (rucaparib) | log2 fold change [2] | log2 fold change (encorafenib) | log2 fold change [3] | log2 fold change [4] | log2 fold change (filanesib) | log2 fold change (zotarolimus) | log2 fold change (idasanutlin) | log2 fold change (alisertib) | log2 fold change [5] | log2 fold change (gefitinib) | log2 fold change [6] | log2 fold change (lapatinib) | log2 fold change (pictilisib) | log2 fold change (alvocidib)
1 | SDHC (UniProt Q99643) | inactive: 0.074 | inactive: -0.201 | inactive: -0.134 | inactive: 0.04 | inactive: -0.062 | inactive: -0.012 | inactive: -0.159 | inactive: 0.029 | inactive: 0.159 | inactive: 0.088 | inactive: 0.088 | inactive: 0.094 | inactive: -0.238 | inactive: 0.023 | inactive: -0.107 | inactive: 0.042 | inactive: 0.04 | inactive: -0.081 | inactive: -0.006 | 
2 | RUFY3 isoform 3 (UniProt Q7L099) | inactive: -0.054 | inactive: -0.036 | inactive: 0 | inactive: -0.029 | inactive: -0.028 | inactive: 0.105 | inactive: -0.255 | inactive: -0.017 | inactive: -0.059 | inactive: -0.06 | inactive: 0.053 | inactive: 0.003 | inactive: -0.108 | inactive: 0.155 | inactive: 0.045 | inactive: 0.08 | inactive: -0.122 | inactive: -0.01 | inactive: 0.018 | 
3 | SCNM1 (UniProt Q9BWG6) | inactive: -0.001 | inactive: 0 | inactive: 0.191 | inactive: -0.026 |  | inactive: -0.016 | inactive: 0.017 | inactive: 0.001 |  | inactive: -0.093 | inactive: 0.134 |  | inactive: 0.135 | inactive: -0.021 | inactive: 0 | inactive: -0.015 | inactive: 0.035 | inactive: -0.078 | inactive: 0.027 | 
4 | RWDD2B (UniProt P57060) | inactive: 0.135 | inactive: -0.024 |  | inactive: -0.055 | inactive: -0.108 | inactive: 0.061 | inactive: -0.1 | inactive: 0.111 | inactive: -0.283 | inactive: -0.28 | inactive: 0.108 |  | inactive: -0.14 |  | inactive: -0.028 |  |  | inactive: -0.025 | inactive: 0.165 | 
5 | RRP36 (UniProt Q96EU6) | inactive: -0.021 | inactive: -0.067 | inactive: 0.17 | inactive: 0.073 | inactive: 0.351 | inactive: 0.057 | inactive: 0.007 | inactive: 0.092 | inactive: 0.05 |  | inactive: 0.372 | inactive: -0.054 | inactive: 0.203 | inactive: -0.217 | inactive: 0.01 | inactive: -0.042 | inactive: -0.268 | inactive: 0.088 | inactive: -0.181 | 
6 | SDC3 (UniProt O75056) | inactive: -0.251 | inactive: -0.074 | inactive: 0.163 |  | inactive: -0.004 | inactive: -0.513 | inactive: 0.036 | inactive: 0.125 | inactive: 0.034 |  | inactive: 0.081 | inactive: -0.045 | inactive: 0.166 |  |  | inactive: 0.115 |  |  | inactive: -0.674 | 
7 | RSF1 (UniProt Q96T23) | inactive: 0 | inactive: -0.209 | inactive: 0.181 | inactive: 0.035 | active: -0.407 | inactive: 0.026 | inactive: 0.048 | inactive: 0.029 | inactive: -0.086 | inactive: 0.267 | inactive: -0.078 | inactive: 0.023 | inactive: -0.147 | inactive: -0.067 | inactive: -0.018 | inactive: 0.037 | inactive: -0.17 | inactive: 0.004 | inactive: 0.114 | 
8 | SCD (UniProt O00767) | inactive: 0.066 | inactive: 0.036 | inactive: -0.234 | inactive: 0.024 | inactive: 0.025 | inactive: -0.006 | inactive: -0.164 | inactive: 0.04 | inactive: 0.045 | active: -0.458 | inactive: -0.074 | inactive: -0.024 | inactive: -0.001 | inactive: 0.014 | inactive: -0.054 | inactive: 0.019 | inactive: 0.048 | inactive: -0.017 | inactive: -0.053 | 
9 | SCPEP1 (UniProt Q9HB40) | inactive: -0.029 | inactive: 0.031 | inactive: -0.012 | inactive: 0.021 | inactive: 0.005 | inactive: 0.064 | inactive: -0.022 | inactive: -0.025 | inactive: -0.004 | inactive: 0.078 | inactive: -0.082 | inactive: 0.009 | inactive: 0.002 | inactive: 0.007 | inactive: -0.058 | inactive: -0.014 | inactive: 0.057 | inactive: -0.021 | inactive: 0.096 | 
10 | S100A10 (UniProt P60903) |  | inactive: -0.147 | inactive: 0.195 |  |  | inactive: -0.038 |  | inactive: -0.293 |  |  | inactive: -0.143 | inactive: -0.045 | inactive: 0.165 |  | inactive: 0.093 | inactive: 0.305 |  | inactive: 0.01 | inactive: -0.056 | 
11 | RTL8C (UniProt A6ZKI3) | inactive: 0.012 |  |  |  | inactive: -0.025 | inactive: -0.101 | inactive: -0.106 | inactive: 0.045 | inactive: 0.008 | inactive: 0.041 |  |  |  |  | inactive: 0.147 |  |  | inactive: -0.049 | inactive: 0.084 | 
12 | RSL24D1 (UniProt Q9UHA3) |  | inactive: 0.028 | inactive: 0.162 | inactive: 0.161 | inactive: 0.46 | inactive: 0.398 |  | inactive: 0.093 | inactive: -0.054 |  | inactive: 0.259 |  | inactive: 0.106 | inactive: -0.086 |  | inactive: -0.031 | inactive: -0.183 |  |  | 
13 | SAP130 isoform 3 (UniProt Q9H0E3) |  |  |  |  | inactive: 0.163 |  |  |  | inactive: -0.052 | inactive: -0.024 |  | inactive: 0.201 | inactive: 0.179 |  |  |  |  |  | inactive: -0.155 | inactive: 0.004
14 | SBF2 (UniProt Q86WG5) | inactive: 0.012 |  |  |  |  |  | inactive: 0.077 |  |  |  |  |  |  |  |  |  |  |  | inactive: 0.04 | 
15 | SBSN (UniProt Q6UWP8) |  |  |  |  |  | inactive: -0.451 |  | inactive: -0.488 |  |  |  |  | inactive: 0.008 | inactive: 1.15 |  | inactive: 0.246 | inactive: -0.246 |  |  | 
16 | RXYLT1 (UniProt Q9Y2B1) |  |  |  | inactive: -0.164 |  |  |  |  |  |  |  |  |  |  | inactive: 0.42 | inactive: 0.144 |  | inactive: 0.316 |  | 

Numbers 1–2 from above:
Row | Target | log2 fold change (saracatinib) | log2 fold change (sotrastaurin) | log2 fold change (Tubastatin A) | log2 fold change [1] | log2 fold change (defactinib) | log2 fold change (rucaparib) | log2 fold change [2] | log2 fold change (encorafenib) | log2 fold change [3] | log2 fold change [4] | log2 fold change (filanesib) | log2 fold change (zotarolimus) | log2 fold change (idasanutlin) | log2 fold change (alisertib) | log2 fold change [5] | log2 fold change (gefitinib) | log2 fold change [6] | log2 fold change (lapatinib) | log2 fold change (pictilisib) | log2 fold change (alvocidib)
1 | SDHC (UniProt Q99643) | inactive: 0.074 | inactive: -0.201 | inactive: -0.134 | inactive: 0.04 | inactive: -0.062 | inactive: -0.012 | inactive: -0.159 | inactive: 0.029 | inactive: 0.159 | inactive: 0.088 | inactive: 0.088 | inactive: 0.094 | inactive: -0.238 | inactive: 0.023 | inactive: -0.107 | inactive: 0.042 | inactive: 0.04 | inactive: -0.081 | inactive: -0.006 | 
2 | RUFY3 isoform 3 (UniProt Q7L099) | inactive: -0.054 | inactive: -0.036 | inactive: 0 | inactive: -0.029 | inactive: -0.028 | inactive: 0.105 | inactive: -0.255 | inactive: -0.017 | inactive: -0.059 | inactive: -0.06 | inactive: 0.053 | inactive: 0.003 | inactive: -0.108 | inactive: 0.155 | inactive: 0.045 | inactive: 0.08 | inactive: -0.122 | inactive: -0.01 | inactive: 0.018 | 

Reference: the supplement of paper PMC10849652
